Measured values reported in paper PMC10192331.

Sequences of proteins named here, by UniProt entry; tags and fusion partners are left off. A change or cut given only in a name is not applied to a line headed by its entry.
UniProt P10415: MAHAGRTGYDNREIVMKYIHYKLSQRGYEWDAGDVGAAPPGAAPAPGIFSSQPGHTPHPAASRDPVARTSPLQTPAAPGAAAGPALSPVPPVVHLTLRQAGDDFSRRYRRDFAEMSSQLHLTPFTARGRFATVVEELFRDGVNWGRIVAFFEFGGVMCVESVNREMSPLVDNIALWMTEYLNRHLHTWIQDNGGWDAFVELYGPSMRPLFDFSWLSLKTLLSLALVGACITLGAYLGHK
UniProt P27546: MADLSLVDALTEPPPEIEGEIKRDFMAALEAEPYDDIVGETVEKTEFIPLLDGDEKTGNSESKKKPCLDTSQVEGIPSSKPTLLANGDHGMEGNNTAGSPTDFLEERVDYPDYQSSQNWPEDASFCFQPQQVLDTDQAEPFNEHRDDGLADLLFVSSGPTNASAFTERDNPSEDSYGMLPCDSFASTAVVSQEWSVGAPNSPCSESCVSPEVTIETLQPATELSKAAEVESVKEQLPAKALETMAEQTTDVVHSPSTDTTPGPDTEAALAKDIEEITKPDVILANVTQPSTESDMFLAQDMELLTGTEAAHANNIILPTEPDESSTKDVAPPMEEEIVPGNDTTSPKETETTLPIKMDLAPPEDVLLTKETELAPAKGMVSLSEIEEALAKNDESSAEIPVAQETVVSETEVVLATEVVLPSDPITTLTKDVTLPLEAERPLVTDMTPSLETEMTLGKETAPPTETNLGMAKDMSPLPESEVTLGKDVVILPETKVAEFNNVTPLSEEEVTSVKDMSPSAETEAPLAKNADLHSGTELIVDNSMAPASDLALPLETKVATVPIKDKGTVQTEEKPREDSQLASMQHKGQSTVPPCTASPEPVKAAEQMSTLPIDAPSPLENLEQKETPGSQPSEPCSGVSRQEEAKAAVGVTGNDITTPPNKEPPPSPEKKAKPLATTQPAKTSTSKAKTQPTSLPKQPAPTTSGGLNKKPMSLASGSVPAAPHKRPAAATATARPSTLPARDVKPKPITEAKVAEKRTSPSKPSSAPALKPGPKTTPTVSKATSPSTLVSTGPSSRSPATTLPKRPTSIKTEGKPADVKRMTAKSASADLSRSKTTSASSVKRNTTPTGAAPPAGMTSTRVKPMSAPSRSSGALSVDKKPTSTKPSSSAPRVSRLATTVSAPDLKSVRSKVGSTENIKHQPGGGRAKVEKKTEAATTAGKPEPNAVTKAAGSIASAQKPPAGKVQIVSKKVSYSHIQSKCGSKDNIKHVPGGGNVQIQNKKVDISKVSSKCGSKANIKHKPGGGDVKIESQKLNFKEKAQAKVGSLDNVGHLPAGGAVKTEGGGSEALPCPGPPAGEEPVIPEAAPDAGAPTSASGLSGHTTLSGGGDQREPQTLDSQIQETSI

Molecular target: Bcl-2, entire coding region, yeast two-hybrid bait (UniProt P10415)
Test: two-hybrid; pBT3-STE-Bcl-2 (bait) and pPR3-N-MAP4 (prey) co-transformed into yeast strain NMY51; growth selection on DDO, TDO or QDO plates at 30 °C for 3 days

- binding: no binding
Substance: mutated MAP4 with knocking out L83/G87/D88 (BH3 domain inactivated), yeast two-hybrid prey (from UniProt P27546)

No constants are given. Whether binding was seen depends on the method and setting.
